Measured values published in PMC5467170.
No constants are given. Whether binding was seen depends on the method and setting. In cells and extracts the contact can be indirect. For part of these data: Binding calls can cover weak binding; strength is not graded here.

Sequences of proteins named here, by UniProt entry; tags and fusion partners are left off. A change or cut given only in a name is not applied to a line headed by its entry.
UniProt Q8WYQ3: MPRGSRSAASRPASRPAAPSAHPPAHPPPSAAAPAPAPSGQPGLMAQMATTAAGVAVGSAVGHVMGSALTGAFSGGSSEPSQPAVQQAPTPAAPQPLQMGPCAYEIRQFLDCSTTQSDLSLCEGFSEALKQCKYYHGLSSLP
UniProt Q13148: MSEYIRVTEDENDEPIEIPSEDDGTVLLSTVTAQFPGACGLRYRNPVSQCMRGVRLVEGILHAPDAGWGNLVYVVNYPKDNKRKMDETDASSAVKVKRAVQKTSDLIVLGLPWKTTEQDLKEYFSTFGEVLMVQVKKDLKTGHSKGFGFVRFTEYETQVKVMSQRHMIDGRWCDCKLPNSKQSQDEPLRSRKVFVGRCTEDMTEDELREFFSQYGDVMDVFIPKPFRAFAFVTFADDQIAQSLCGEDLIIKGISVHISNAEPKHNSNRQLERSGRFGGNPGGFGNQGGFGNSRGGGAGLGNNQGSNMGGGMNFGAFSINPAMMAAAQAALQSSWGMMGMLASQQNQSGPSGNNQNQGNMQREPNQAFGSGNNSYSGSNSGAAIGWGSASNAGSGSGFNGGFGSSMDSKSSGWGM

Experiments:
[1] = molecular target: endogenous CHCHD10 (coiled-coil-helix-coiled-coil-helix domain containing 10) (UniProt Q8WYQ3); assay: co-IP; endogenous proteins; immune complexes of CHCHD10 or of TDP-43, IgG beads alone as control; cells lysed in NP-40 lysis buffer (50 mM Tris pH 7.4, 150 mM NaCl, 2 mM EDTA, 1% NP-40)
[2] = molecular target: human Flag-CHCHD10 wild type (human) (UniProt Q8WYQ3); assay: co-IP; cells (HT22 in Fig. 5a,c) transfected with/without TDP-43-tomato and Flag-CHCHD10 variants; lysates precipitated with Flag (M2) antibody and immunoblotted; NP-40 lysis buffer
[3] = molecular target: human Flag-CHCHD10 S59L (human) (UniProt Q8WYQ3); assay: as above
[4] = molecular target: human Flag-CHCHD10 R15L (human) (UniProt Q8WYQ3); assay: as above
[5] = molecular target: human Flag-CHCHD10 Δ1–15 (human) (UniProt Q8WYQ3); assay: as above
[6] = molecular target: human Flag-CHCHD10 Δ119–142 (human) (UniProt Q8WYQ3); assay: as above

Substance: endogenous TDP-43 (TAR DNA-binding protein 43) (from UniProt Q13148 1-414)
- binding [1]: binds

Substance: TDP-43-tomato (wtTDP43tdTomatoHA) (from UniProt Q13148 1-414)
- binding [2]: binds
- binding [3]: binds
- binding [4]: binds
- binding [5]: no binding
- binding [6]: binds
